What is called solubility is the dissolved amount per volume that the medium holds. High values mean much dissolved substance, low ones little dissolved substance.

This series can be described thus: Solubility of the compound in phosphate buffered saline at pH 7.4 after 1 hr by LC-MS/MS analysis. The note with it: buffer.

In brackets after ≈: the same amount, converted by molar mass.

The molecule `C=Cc1cc(C(NC(=O)NC(C)(C)C)C(=O)Nc2cccc(C(=O)NS(=O)(=O)c3ccc(C(F)(F)F)cc3)c2)ccc1Oc1cc(OC)nc(-c2ccccc2)n1` (configuration not stated) came in with a solubility at 1 h of 31 µM (≈ 24.9 µg/mL).
The molecule `C=Cc1cc(C(NC(=O)OC(C)(C)C)C(=O)Nc2ccc(C(=O)NS(=O)(=O)c3ccc(C(F)(F)F)cc3)cc2)ccc1Oc1cc(OC)nc(-c2ccccc2)n1` (configuration not stated) yielded a solubility at 1 h of 37 µM (≈ 29.7 µg/mL).

The values are drawn from ChEMBL document CHEMBL3124859, “Novel Peptidomimetic Hepatitis C Virus NS3/4A Protease Inhibitors Spanning the P2-P1' Region” (ACS Med Chem Lett, 2014).
